Experimental data: PubChem BioAssay AID1259424 (University of Nebraska Medical Center, 2018)
The deposit covers about 14,000 reagents; this is a part drawn at random. 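Higher correlation or smaller distance means closer resemblance to KSR1 loss; control wells, including KSR1 knockdowns, recur on many plates.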 A reagent listed more than once was tested more than once; the source does not tell the runs apart. Further read-outs or replicates are left out here. The record does not give: the time to read-out.

- Purpose: 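Seek colon cancer survival genes behaving like KSR1, using a six-gene signature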 (primary screen)
- Cell system: human HCT116 colon cancer cells
- Knock-down reagent: siRNA pool against human genes, 50 nM
- Detection: 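Six signature mRNAs by branched-DNA multiplex assay, scaled to two housekeeping genes and non-targeting median, log2; matched to mean KSR1 knockdown profile by Pearson correlation and euclidean distance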
- Reading the numbers: mean correlation with KSR1 profile: higher = expression change more like KSR1 knockdown

mean correlation with KSR1 profile	gene knocked down
0.432	CPNE6
0.957	RGS19
0.184	PGLYRP4
0.136	HSD11B1
-0.0965	NAP1L1
0.498	HMOX2
-0.3	INTS15
-0.0139	SLC2A10
0.694	INPP5E
-0.514	TMSB10
0.0837	PPBP
0.118	SEPTIN5
0.0925	SDCBP2
0.153	TOR1A
-0.183	FRG1
-0.426	RRP1
-0.674	CTBP1
-0.601	LAX1
0.493	AGTR2
-0.0132	AGTR2
-0.136	B4GALT1
-0.144	ECT2
0.388	KATNBL1
-0.337	IL31RA
-0.235	ZNF343

Records listed so far whose gene name starts with P or p:
mean correlation with KSR1 profile	gene knocked down
0.184	PGLYRP4
0.0837	PPBP

Additional entries follow.
mean correlation with KSR1 profile	gene knocked down
0.494	FASTK
-0.171	EBLN2
0.963	BAZ2B
-0.494	ZNF658
0.382	TNPO1
0.627	RORC
0.039	PRP4K
-0.168	RAP1B
-0.392	SDF2L1
-0.574	EHBP1
0.264	AP2A1
0.265	CFAP61
0.503	DCAF7
0.47	STAT1
0.509	SLC12A1
-0.0372	NT5C
0.182	SRPK1
-0.764	QPCT
0.00254	PSG4
-0.31	ACSL3
-0.0467	KIF23
-0.094	ZC4H2
-0.289	C4B
0.807	GLIPR1
-0.261	FGF11
-0.107	TLE4
-0.341	RIGI
0.387	CPN1
-0.198	RAB23
-0.338	SNHG32
-0.0437	PTPN21
-0.187	CARM1
-0.314	MFN1
-0.0402	PAPOLG
-0.375	CCDC91
0.573	PPP1R14A
-0.171	ATP2A1
-0.676	OLFML3
